Laboratory results taken from PubChem BioAssay AID493014 (National Center for Advancing Translational Sciences (NCATS), 2011).
Hit rate of the full screen: of about 340,000 compounds, about 170 (0.05%) were called active. Inconclusive means that the source gave no clear call. Such entries were picked first, then a sample of the others. Calls follow the shape of the dose curve; as a rule, active = well fitted inhibition curve with a large enough effect in the signal ratio, with a control signal flat (not every such curve was filed as active); inconclusive = small, poorly fitted or top-dose-only effect, or effect the other way, or a change in a side signal; inactive = flat fitted curve, though single readings scatter; the % refers to the signal ratio. Potencies of inconclusive entries are doubtful fits and often do not repeat.

Test: qHTS Assay to Find Inhibitors of Chronic Active B-Cell Receptor Signaling;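 as to activity change, negative = inhibition: plate controls were basal doxycycline-induced cells for no effect and cells given 10 µM MG132 for full effect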
Conditions: ABC-DLBCL IkBa-CBG/CBR reporter, luminescence ratio (green luciferase fused to IkBa over red control in TMD8 lymphoma cells), 4 h; activity change, negative = inhibition: at 46.1 µM (top of the series) unless noted
Outline: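 Cell line TMD8 (human ABC DLBCL), stably expressing tet-inducible CBG68-IkBa fusion and CBR; IMDM/0.5% FBS; cpd up to 46 uM; dox induction, 4 h, 37C/5% CO2; dual luminescence; green/red ratio; MG132 control.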
Potency is read from the fitted curve at half-maximal effect.

Row | SMILES | Potency | activity change, negative = inhibition
1 | CC(C)[C@H](NS(=O)(=O)c1ccccc1)C(=O)OCC(=O)NCc1ccc2c(c1)OCO2 | inconclusive: 29.1 µM [falling, single point] | –
2 | COc1ccc(/C=C\C(=O)O[C@@H]2C(O)C(O[C@@H]3OC(C)[C@H](O[C@@H]4OCC(O[C@H]5O[C@H](CO)[C@@H](O)C(O)C5O)C(O)C4O)C(O)C3O)[C@H](OC(=O)[C@]34CCC(C)(C)C[C@@H]3C3=CCC5[C@@]6(C)CC(O)C(O[C@@H]7OC(CO)C(O)[C@H](O)[C@H]7O)[C@@](C)(C(=O)O)C6CC[C@@]5(C)[C@]3(CO)CC4)O[C@H]2C)cc1 (some centres not stated) | – | inconclusive: 7.55%
3 | COCCCNC(=O)c1ccc2c3c(onc13)-c1ccccc1C2=O | inconclusive: 3.16 µM [rising, partial curve, poor fit] | –
4 | O=C(CCS(=O)(=O)c1ccccc1)Nc1nc2cc3c(cc2s1)OCCO3 | inconclusive: 1.41 µM [rising, full curve, poor fit] | –
5 | Cc1ccc(-c2nc(N)n(S(=O)(=O)c3ccc(C)cc3)n2)cc1 | – | inconclusive: 2.27%
6 | CC(C)(C)OC(=O)N1CCC(C(=O)N[C@H](C(=O)O)c2ccccc2)(c2ccccc2)CC1 | – | inactive
7 | CN(CC(=O)Nc1ccc(F)cc1)C(=O)CSc1ncccn1 | inconclusive: 10.3 µM [falling, partial curve, poor fit] | –
8 | O=C(c1ccc(=O)n(Cc2ccccc2)n1)N1CCN(C/C=C/c2ccccc2)CC1 | – | inactive
9 | COc1ccc(-c2cnc(SCC(=O)Nc3cc(C)on3)n2Cc2ccco2)cc1 | – | inconclusive: -8.04%
10 | CCn1c(SCC(=O)Nc2ccccc2)nc2nc3c(cc2c1=O)COC(C)(C)C3 | – | inconclusive: -14.5%
11 | COc1cccc(C(=O)NC(C)c2ccc(-c3ccccc3)cc2)c1OC (configuration not stated) | – | inactive
12 | CC(C)CN1C(=O)c2ccc(NC(=O)C3CC3)cc2C1=O | – | inactive
13 | Cc1c(C(=O)NC(C)c2ccncc2)oc2ccccc12 (configuration not stated) | – | inactive
14 | CN(C)c1ccc(N=Nc2ccc(S(N)(=O)=O)cc2)cc1 | inconclusive: 12.6 µM [rising, partial curve, poor fit] | –
15 | CCn1ncc(Br)c1C(=O)Nc1ccc(C(=O)OC(C)C)cc1 | inconclusive: 0.103 µM [rising, full curve, poor fit] | –
16 | COc1ccc(/C=C2\SC(=NCc3ccccc3)NC2=O)cc1 | inconclusive: 25.9 µM [falling, single point] | –
17 | CC1(C)CC(=O)C=C(NC2=CC3OC(c4ccccc4)OCC3OC2=O)C1 (configuration not stated) | – | inconclusive: -5.93%
18 | Cc1nn(Cc2ccccc2Cl)c2sc(C(=O)NC(C)(C)C)cc12 | inconclusive: 29.1 µM [falling, partial curve, poor fit] | –
19 | O=C(Nc1ccc(Cl)c(C(F)(F)F)c1)c1nc2ccccc2nc1N1CCCCC1 | – | inactive
20 | Cc1cccc(-c2nc3cc([N+](=O)[O-])ccc3o2)c1 | – | inconclusive: 9.64%
21 | CN(C)CCCN(C(=O)c1cc(-c2cccs2)nc2ccccc12)c1nc2ccc(F)cc2s1 | – | inconclusive: 6.2%
22 | O=C(NN=C1CCCC1)c1ccccc1[N+](=O)[O-] | inconclusive: 8.91 µM [falling, partial curve, poor fit] | –
23 | CC1CCc2c(sc3nc(CN4CCOCC4)nc(Sc4ccccc4)c23)C1 (configuration not stated) | – | inconclusive: 1.86%
24 | O=C(/C=C/c1cnc2ccccc2n1)NC1CCCCCC1 | inconclusive: 23.1 µM [falling, single point] | –

Some of the entries so far, in markdown.

| Row | SMILES | Potency | activity change, negative = inhibition |
| --- | --- | --- | --- |
| 14 | CN(C)c1ccc(N=Nc2ccc(S(N)(=O)=O)cc2)cc1 | inconclusive: 12.6 µM [rising, partial curve, poor fit] | – |
| 15 | CCn1ncc(Br)c1C(=O)Nc1ccc(C(=O)OC(C)C)cc1 | inconclusive: 0.103 µM [rising, full curve, poor fit] | – |
| 16 | COc1ccc(/C=C2\SC(=NCc3ccccc3)NC2=O)cc1 | inconclusive: 25.9 µM [falling, single point] | – |
| 17 | CC1(C)CC(=O)C=C(NC2=CC3OC(c4ccccc4)OCC3OC2=O)C1 (configuration not stated) | – | inconclusive: -5.93% |
| 18 | Cc1nn(Cc2ccccc2Cl)c2sc(C(=O)NC(C)(C)C)cc12 | inconclusive: 29.1 µM [falling, partial curve, poor fit] | – |
| 19 | O=C(Nc1ccc(Cl)c(C(F)(F)F)c1)c1nc2ccccc2nc1N1CCCCC1 | – | inactive |
| 20 | Cc1cccc(-c2nc3cc([N+](=O)[O-])ccc3o2)c1 | – | inconclusive: 9.64% |
| 21 | CN(C)CCCN(C(=O)c1cc(-c2cccs2)nc2ccccc12)c1nc2ccc(F)cc2s1 | – | inconclusive: 6.2% |
| 22 | O=C(NN=C1CCCC1)c1ccccc1[N+](=O)[O-] | inconclusive: 8.91 µM [falling, partial curve, poor fit] | – |
| 23 | CC1CCc2c(sc3nc(CN4CCOCC4)nc(Sc4ccccc4)c23)C1 (configuration not stated) | – | inconclusive: 1.86% |
| 24 | O=C(/C=C/c1cnc2ccccc2n1)NC1CCCCCC1 | inconclusive: 23.1 µM [falling, single point] | – |

(more compounds)

Row | SMILES | Potency | activity change, negative = inhibition
25 | CC1CCCN(C(c2cccs2)c2nnnn2Cc2ccccc2)C1 (configuration not stated) | – | inconclusive: 6.94%
26 | CCOc1ccccc1C=Nc1ccccc1C(=O)Nc1ccccc1 | – | inconclusive: -17.4%
27 | Cc1cc(C)cc(NC(=S)NC(=O)C2CC2)c1 | – | inactive
28 | COCCN(C(=O)CC1C(=O)NCCN1CC(c1ccccc1)c1ccccc1)C(C)C (configuration not stated) | – | inactive
29 | Cc1cc(=O)oc2cc(N3C(=O)CC(Cc4ccccc4)C3=O)ccc12 (configuration not stated) | – | inconclusive: 7.34%
30 | O=C(Nc1ccc(-c2nc3cccnc3s2)cc1)C1CCCO1 (configuration not stated) | inconclusive: 20.6 µM [falling, single point] | –
31 | COc1ccc(N=C2NC(=O)S/C2=C\c2ccc(N(C)C)cc2)cc1 | – | inconclusive: 6.77%
32 | Cc1c(C)c2ccc(OCC(=O)N3CCOCC3)c(C)c2oc1=O | inconclusive: 35.5 µM [falling, single point] | –
33 | Cc1cccc(CC(=O)NCCS(=O)(=O)N2CCN(c3cccc(Cl)c3)CC2)c1 | inconclusive: 16.4 µM [falling, partial curve, poor fit] | –
34 | Cc1cc(C(=S)N2CCOCC2)c(C)n1-c1ccc(Cl)cc1 | – | inconclusive: -17.6%
35 | Cc1ccc(S(=O)(=O)CC(=O)Nc2nc3c(C)cccc3s2)cc1 | – | inconclusive: -23.7%
36 | O=CN1N=C(c2ccccc2)CC1c1ccc(Cl)cc1 (configuration not stated) | – | inactive
37 | O=C(CSc1nc2ccccc2n1CC(=O)N1CCCC1)NCc1ccc2c(c1)OCO2 | – | inactive
38 | COc1cccc(NC(=O)NC2(C(=O)N3CCC(O)CC3)CCCCC2)c1 | – | inconclusive: -8.02%
39 | CCn1c2ccccc2c2cc(NC(=O)C3CCN(S(=O)(=O)c4cccs4)CC3)ccc21 | – | inactive
40 | COc1cccc(NC(=O)c2cc(Cl)nnc2Cl)c1 | inconclusive: 35.5 µM [falling, single point] | –
41 | COc1ccc2cc(C(=O)N3CCN(c4ccccc4F)CC3)[nH]c2c1 | – | inactive
42 | O=C(CN1CCN(c2ccccc2F)CC1)N1CCc2ccccc21 | – | inactive
43 | COc1cccc(NC(=O)C(c2ccccc2)N2CCNC(=O)C2)c1 (configuration not stated) | – | inconclusive: 6.9%
44 | COc1ccc2[nH]c3c(c2c1)CCN1C(=O)C(CC(=O)NCC24CC5CC(CC(C5)C2)C4)C[C@H](C(=O)N(C(C)C)C(C)C)[C@@]31C (some centres not stated) | – | inactive
45 | COc1ccc(C(=O)OC(C)CN2CCOCC2)cc1 (configuration not stated) | – | inconclusive: -0.803%
46 | CCOc1cc(CNCCCN2CCOCC2)cc(Br)c1OCC(=O)Nc1cccc(C(F)(F)F)c1 | – | inconclusive: -18.1%
47 | O=C(CSc1cccc2cccnc12)OCC(=O)c1ccccc1 | inconclusive: 0.794 µM [falling, partial curve, poor fit] | –
